Source: PMC5668365
These are yes or no findings as the source states them, for the method shown. Binding seen in cells or lysates may run through a third protein. Some results given as binding are weak or reduced against the parent protein; the word gives no strength. Tags and fused reporters may be left off the sequences shown.

T1: GST-GP73 fusion protein (UniProt Q8NBJ4)
T1 sequence: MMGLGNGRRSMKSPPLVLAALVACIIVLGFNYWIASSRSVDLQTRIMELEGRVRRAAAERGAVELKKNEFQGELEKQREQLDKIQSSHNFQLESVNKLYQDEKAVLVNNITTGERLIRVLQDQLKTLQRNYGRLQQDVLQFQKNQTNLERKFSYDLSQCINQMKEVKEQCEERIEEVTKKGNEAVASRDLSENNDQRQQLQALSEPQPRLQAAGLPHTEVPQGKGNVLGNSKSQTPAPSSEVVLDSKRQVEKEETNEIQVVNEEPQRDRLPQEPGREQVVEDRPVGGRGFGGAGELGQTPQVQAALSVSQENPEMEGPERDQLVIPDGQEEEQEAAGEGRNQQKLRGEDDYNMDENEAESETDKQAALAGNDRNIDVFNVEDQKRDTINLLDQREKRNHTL

T2: Flag-SCAP (UniProt Q12770)
T2 sequence: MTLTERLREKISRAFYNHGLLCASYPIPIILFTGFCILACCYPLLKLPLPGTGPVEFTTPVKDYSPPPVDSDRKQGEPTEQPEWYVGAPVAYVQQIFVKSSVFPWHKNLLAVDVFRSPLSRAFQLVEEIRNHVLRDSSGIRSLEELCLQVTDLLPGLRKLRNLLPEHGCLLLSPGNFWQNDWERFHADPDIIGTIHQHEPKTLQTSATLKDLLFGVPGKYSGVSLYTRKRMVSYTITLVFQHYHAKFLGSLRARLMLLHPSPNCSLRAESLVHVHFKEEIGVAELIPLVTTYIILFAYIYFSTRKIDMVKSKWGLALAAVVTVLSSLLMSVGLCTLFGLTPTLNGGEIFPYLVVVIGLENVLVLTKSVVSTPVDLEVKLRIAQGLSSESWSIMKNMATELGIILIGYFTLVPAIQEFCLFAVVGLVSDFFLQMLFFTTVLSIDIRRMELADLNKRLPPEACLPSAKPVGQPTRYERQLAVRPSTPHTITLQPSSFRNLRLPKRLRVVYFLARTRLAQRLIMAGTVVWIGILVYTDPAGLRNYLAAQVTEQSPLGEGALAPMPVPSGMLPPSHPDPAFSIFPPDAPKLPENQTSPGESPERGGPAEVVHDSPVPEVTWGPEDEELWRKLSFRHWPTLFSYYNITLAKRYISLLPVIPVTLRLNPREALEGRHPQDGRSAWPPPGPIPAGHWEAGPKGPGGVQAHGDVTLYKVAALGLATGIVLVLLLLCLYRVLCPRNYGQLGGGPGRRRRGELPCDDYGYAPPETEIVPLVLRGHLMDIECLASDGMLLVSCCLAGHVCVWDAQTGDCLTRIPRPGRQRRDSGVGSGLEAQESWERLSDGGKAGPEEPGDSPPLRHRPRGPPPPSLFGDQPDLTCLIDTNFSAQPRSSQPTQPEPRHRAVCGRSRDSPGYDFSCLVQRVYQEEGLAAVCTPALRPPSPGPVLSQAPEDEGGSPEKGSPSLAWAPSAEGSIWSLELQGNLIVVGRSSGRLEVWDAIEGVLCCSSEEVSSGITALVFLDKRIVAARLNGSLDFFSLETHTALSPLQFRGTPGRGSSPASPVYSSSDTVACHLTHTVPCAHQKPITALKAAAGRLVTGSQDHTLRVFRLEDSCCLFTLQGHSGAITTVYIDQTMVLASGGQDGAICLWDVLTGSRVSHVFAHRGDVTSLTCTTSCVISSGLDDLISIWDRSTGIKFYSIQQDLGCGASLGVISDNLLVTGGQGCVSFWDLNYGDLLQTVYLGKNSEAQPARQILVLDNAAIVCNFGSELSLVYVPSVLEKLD


Experiments:
GST-GP73 fusion protein = biological target: T1, GST-GP73 fusion protein; test: pull-down; 5 ug purified GST or GST-GP73 bound to glutathione beads, incubated with 293T cell lysate for 2 hrs at 4 °C; washed with lysis buffer; immunoblot with SCAP or SREBP1 antibody; only the target purified
Flag-SCAP = biological target: T2, Flag-SCAP; test: co-IP; anti-Flag immunoprecipitation from lysates of transfected cells (Flag-SCAP with Myc-GP73 or Myc-vector) in NP40 buffer (1% NP40, 150 mM NaCl, 40 mM Tris pH 7.5), protein G-agarose; immunoblot

Binder	binding (GST-GP73 fusion protein)	binding (Flag-SCAP)
SREBP cleavage-activating protein (SCAP), endogenous (protein, UniProt Q12770 1-1279) MTLTERLREKISRAFYNHGLLCASYPIPIILFTGFCILACCYPLLKLPLPGTGPVEFTTPVKDYSPPPVDSDRKQGEPTEQPEWYVGAPVAYVQQIFVKSSVFPWHKNLLAVDVFRSPLSRAFQLVEEIRNHVLRDSSGIRSLEELCLQVTDLLPGLRKLRNLLPEHGCLLLSPGNFWQNDWERFHADPDIIGTIHQHEPKTLQTSATLKDLLFGVPGKYSGVSLYTRKRMVSYTITLVFQHYHAKFLGSLRARLMLLHPSPNCSLRAESLVHVHFKEEIGVAELIPLVTTYIILFAYIYFSTRKIDMVKSKWGLALAAVVTVLSSLLMSVGLCTLFGLTPTLNGGEIFPYLVVVIGLENVLVLTKSVVSTPVDLEVKLRIAQGLSSESWSIMKNMATELGIILIGYFTLVPAIQEFCLFAVVGLVSDFFLQMLFFTTVLSIDIRRMELADLNKRLPPEACLPSAKPVGQPTRYERQLAVRPSTPHTITLQPSSFRNLRLPKRLRVVYFLARTRLAQRLIMAGTVVWIGILVYTDPAGLRNYLAAQVTEQSPLGEGALAPMPVPSGMLPPSHPDPAFSIFPPDAPKLPENQTSPGESPERGGPAEVVHDSPVPEVTWGPEDEELWRKLSFRHWPTLFSYYNITLAKRYISLLPVIPVTLRLNPREALEGRHPQDGRSAWPPPGPIPAGHWEAGPKGPGGVQAHGDVTLYKVAALGLATGIVLVLLLLCLYRVLCPRNYGQLGGGPGRRRRGELPCDDYGYAPPETEIVPLVLRGHLMDIECLASDGMLLVSCCLAGHVCVWDAQTGDCLTRIPRPGRQRRDSGVGSGLEAQESWERLSDGGKAGPEEPGDSPPLRHRPRGPPPPSLFGDQPDLTCLIDTNFSAQPRSSQPTQPEPRHRAVCGRSRDSPGYDFSCLVQRVYQEEGLAAVCTPALRPPSPGPVLSQAPEDEGGSPEKGSPSLAWAPSAEGSIWSLELQGNLIVVGRSSGRLEVWDAIEGVLCCSSEEVSSGITALVFLDKRIVAARLNGSLDFFSLETHTALSPLQFRGTPGRGSSPASPVYSSSDTVACHLTHTVPCAHQKPITALKAAAGRLVTGSQDHTLRVFRLEDSCCLFTLQGHSGAITTVYIDQTMVLASGGQDGAICLWDVLTGSRVSHVFAHRGDVTSLTCTTSCVISSGLDDLISIWDRSTGIKFYSIQQDLGCGASLGVISDNLLVTGGQGCVSFWDLNYGDLLQTVYLGKNSEAQPARQILVLDNAAIVCNFGSELSLVYVPSVLEKLD	binds	
Myc-GP73 (protein, UniProt Q8NBJ4 1-401) MMGLGNGRRSMKSPPLVLAALVACIIVLGFNYWIASSRSVDLQTRIMELEGRVRRAAAERGAVELKKNEFQGELEKQREQLDKIQSSHNFQLESVNKLYQDEKAVLVNNITTGERLIRVLQDQLKTLQRNYGRLQQDVLQFQKNQTNLERKFSYDLSQCINQMKEVKEQCEERIEEVTKKGNEAVASRDLSENNDQRQQLQALSEPQPRLQAAGLPHTEVPQGKGNVLGNSKSQTPAPSSEVVLDSKRQVEKEETNEIQVVNEEPQRDRLPQEPGREQVVEDRPVGGRGFGGAGELGQTPQVQAALSVSQENPEMEGPERDQLVIPDGQEEEQEAAGEGRNQQKLRGEDDYNMDENEAESETDKQAALAGNDRNIDVFNVEDQKRDTINLLDQREKRNHTL		binds
